Measured values from article doi:10.1101/2021.10.15.464533.
These are yes or no findings as the source states them, for the method shown. Binding seen in cells or lysates may run through a third protein. Some entries that bind do so weakly or less than the wild type. Where a sequence is shown, tags or fusion partners need not be part of it.

Biological target: T1, APETALA3 (AP3) fused to GFP (Arabidopsis), P35632
T1 chain: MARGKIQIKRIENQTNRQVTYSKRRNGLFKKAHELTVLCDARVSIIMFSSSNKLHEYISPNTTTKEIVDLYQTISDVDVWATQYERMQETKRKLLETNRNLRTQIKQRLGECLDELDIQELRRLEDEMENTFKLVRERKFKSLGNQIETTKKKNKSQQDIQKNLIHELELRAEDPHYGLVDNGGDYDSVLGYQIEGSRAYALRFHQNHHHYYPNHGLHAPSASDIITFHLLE
Test: co-IP
Details: remark: other sources report otherwise

B1: … (PI) fused to TurboID and 3xMyc, P48007 1-208 (protein)
chain: MGRGKIEIKRIENANNRVVTFSKRRNGLVKKAKEITVLCDAKVALIIFASNGKMIDYCCPSMDLGAMLDQYQKLSGKKLWDAKHENLSNEIDRIKKENDSLQLELRHLKGEDIQSLNLKNLMAVEHAIEHGLDKVRDHQMEILISKRRNEKMMAEEQRQLTFQLQQQEMAIASNARGMMMRDHDGQFGYRVQPIQPNLQEKIMSLVID
modifications: here or on the partner: likely auto-biotinylated (sites not given); biotinylated by PI-TurboID (sites not given)
Question: How did the binding turn out when B1 was run?
Answer: The binding was “binds”.
